Reference: article PMC10847417
Results are given in words; binding and its absence hold for the method and conditions named. In cells and extracts the contact can be indirect. Some binding calls cover weakened binding; strength is not graded here.

The chains behind the UniProt entries cited, without tags or fusion partners. Where a name states a change or a piece, a line headed by the entry shows the natural chain unless it says otherwise.
UniProt P14618: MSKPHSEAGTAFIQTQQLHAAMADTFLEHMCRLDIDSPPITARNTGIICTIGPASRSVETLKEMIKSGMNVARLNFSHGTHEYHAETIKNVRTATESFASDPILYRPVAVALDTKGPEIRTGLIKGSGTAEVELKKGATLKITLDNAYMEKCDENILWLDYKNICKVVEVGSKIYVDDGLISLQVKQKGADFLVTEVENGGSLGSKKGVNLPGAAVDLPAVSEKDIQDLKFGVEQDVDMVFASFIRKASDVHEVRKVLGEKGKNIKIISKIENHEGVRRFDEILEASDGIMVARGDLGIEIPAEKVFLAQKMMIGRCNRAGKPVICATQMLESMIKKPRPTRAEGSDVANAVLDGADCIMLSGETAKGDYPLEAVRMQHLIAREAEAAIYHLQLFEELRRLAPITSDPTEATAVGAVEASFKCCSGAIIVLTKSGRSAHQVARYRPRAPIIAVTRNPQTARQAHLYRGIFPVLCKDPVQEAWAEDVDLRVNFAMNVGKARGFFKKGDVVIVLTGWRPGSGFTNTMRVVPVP
UniProt Q15172: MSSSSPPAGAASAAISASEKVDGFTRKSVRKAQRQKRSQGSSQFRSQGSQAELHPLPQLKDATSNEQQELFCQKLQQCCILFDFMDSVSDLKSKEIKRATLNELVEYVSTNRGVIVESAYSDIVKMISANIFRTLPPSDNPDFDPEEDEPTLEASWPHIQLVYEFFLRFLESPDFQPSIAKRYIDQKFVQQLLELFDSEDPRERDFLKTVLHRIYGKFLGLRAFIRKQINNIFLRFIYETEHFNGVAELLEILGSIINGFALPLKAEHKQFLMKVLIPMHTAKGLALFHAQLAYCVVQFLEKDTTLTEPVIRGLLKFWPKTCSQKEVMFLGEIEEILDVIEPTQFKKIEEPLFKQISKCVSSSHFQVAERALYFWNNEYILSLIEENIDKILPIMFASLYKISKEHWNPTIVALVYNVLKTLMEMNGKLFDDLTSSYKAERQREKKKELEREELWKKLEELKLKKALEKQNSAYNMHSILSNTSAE
UniProt P52294: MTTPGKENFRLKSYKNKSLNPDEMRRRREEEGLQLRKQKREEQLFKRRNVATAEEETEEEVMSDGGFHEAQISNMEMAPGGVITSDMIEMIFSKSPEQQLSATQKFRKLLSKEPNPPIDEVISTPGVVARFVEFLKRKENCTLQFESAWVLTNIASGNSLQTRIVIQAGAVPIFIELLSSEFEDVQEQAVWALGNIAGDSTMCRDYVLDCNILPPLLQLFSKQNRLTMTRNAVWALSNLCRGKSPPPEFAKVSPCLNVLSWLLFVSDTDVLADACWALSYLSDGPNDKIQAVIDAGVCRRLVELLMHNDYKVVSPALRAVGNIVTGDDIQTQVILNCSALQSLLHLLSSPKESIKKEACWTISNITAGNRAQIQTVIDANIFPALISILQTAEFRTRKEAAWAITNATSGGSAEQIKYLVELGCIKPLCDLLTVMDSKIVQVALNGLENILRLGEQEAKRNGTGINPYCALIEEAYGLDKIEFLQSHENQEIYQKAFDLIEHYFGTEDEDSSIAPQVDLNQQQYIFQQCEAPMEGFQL

What was measured:
[1] = target: HA-PKM2 (wild type), expressed in 293T cells (human) (UniProt P14618); experiment: co-IP; HA-tagged PKM2 constructs co-transfected with Flag-tagged CIP2A or Flag-tagged B56 subunits into 293T cells; IP of total protein extracts and western blot
[2] = target: pyruvate kinase M2 (PKM2), endogenous (human (endogenous in A549 and H1299)) (UniProt P14618); experiment: proximity ligation; Duolink in situ PLA on fixed, permeabilised A549 and H1299 cells with primary antibodies to the two endogenous proteins
[3] = target: pyruvate kinase M2 (PKM2), endogenous (human (endogenous in A549 and H1299)) (UniProt P14618); experiment: co-IP; endogenous proteins in A549 and H1299 lysates; IP lysis buffer, 2 μg antibody and Protein A/G PLUS-Agarose at 4 °C overnight, five washes, western blot
[4] = target: HA-PKM2 (wild type), expressed in H1299 cells (human) (UniProt P14618); experiment: co-IP; HA-PKM2 (WT or mutants) transfected into H1299 cells (also CIP2A-knockdown cells, PKM2-depleted cells, with or without Flag-CIP2A); proteins immunoprecipitated by HA-PKM2, endogenous partners by western blot
[5] = target: HA-PKM2 L218A/V221A (human) (UniProt P14618); experiment: as above
[6] = target: shRNA-resistant HA-PKM2 S287A mutant, expressed in PKM2-depleted H1299 cells (human) (UniProt P14618); experiment: as above

Row | binding [1] | binding [2] | binding [3] | binding [4] | binding [5] | binding [6] | Substance
1 | binds |  |  |  |  |  | Flag-B56α (from UniProt Q15172 1-486)
2 |  | binds | binds | binds | binds |  | PP2A regulatory subunit B56α, endogenous (from UniProt Q15172 1-486)
3 |  |  |  | binds |  | binds | importin α5, endogenous (from UniProt P52294 1-538)
